# Reference: PubChem BioAssay AID504834 (National Center for Advancing Translational Sciences (NCATS), 2011)
# In all, about 320,000 compounds went through this assay and about 22,000 (6.9%) were called active. This list was built around the results that the source calls inconclusive (neither active nor inactive); the mix of calls is not that of the screen. The call rests on the fitted dose curve; in most records, active means well fitted inhibition curve with a large enough effect; inconclusive means small, poorly fitted or top-dose-only effect, or another doubt; inactive means no such curve, though single readings can be large or run the other way. A potency beside an inconclusive call is a rough fit, not a confirmed value.
# Assay: Primary qHTS for delayed death inhibitors of the malarial parasite plastid, 96 hour incubation
# Conditions: P. falciparum luciferase reporter growth; series mostly up to 28.7 µM; activity change, negative = inhibition: at the top concentration
# How it was run: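 Cell-based qHTS: luciferase-tagged P. falciparum in erythrocytes (2% hematocrit, 0.05% parasitemia final) incubated with compounds for 96 hours, 37 C, 5% CO2; luciferase detection reagent then added and luminescence measured.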
# On the % scale 0 is the no-effect control and ±100 the full control effect; potency means the concentration at half of the fitted maximal effect.
Compound,Potency,"activity change, negative = inhibition"
CC(C)N(CCn1c(SCC(=O)N2CC(=O)Nc3ccccc32)nc2ccccc2c1=O)C(C)C,"inconclusive: 11.7 µM [inhibitor, partial curve, poor fit]",–
O=C(NCCC(=O)N1CCCC(C(F)(F)F)C1)c1ccc(Br)cc1 (stereo unspecified),"inconclusive: 16.5 µM [inhibitor, single point]",–
O=C(NCCc1ccccc1)c1ccc2c(c1)S(=O)(=O)N=C1CCCCCN12,"inconclusive: 0.0928 µM [inhibitor, full curve, poor fit]",–
CC(Sc1nnnn1C)C(=O)Nc1cc(S(=O)(=O)N2CCCCC2)ccc1Cl (stereo unspecified),"inconclusive: 0.117 µM [inhibitor, full curve, poor fit]",–
Cc1ccc(CN2C(=NC(=O)CCC(=O)O)SC3CS(=O)(=O)CC32)cc1 (stereo unspecified),–,inactive: 5.39%
C=CCn1c(=O)c2ccccc2n2c(Sc3nnnn3-c3ccccc3)nnc12,"inconclusive: 5.22 µM [inhibitor, partial curve, poor fit]",–
CN1/C(=C\C(=O)C[n+]2ccc3ccccc3c2)C(C)(C)c2ccccc21,active: 1.04 µM,–
O=C(c1ccccc1Cl)N1CCCC(c2nc3c(nnn3Cc3ccccc3)c(=O)[nH]2)C1 (stereo unspecified),–,inactive: 0.722%
COc1ccc(/C=C/C(=O)NC2CC3CCC2C3)cc1 (stereo unspecified),"inconclusive: 18.5 µM [inhibitor, single point]",–
COCCNCCCOc1ccc(Br)cc1Cl,"inconclusive: 10.4 µM [inhibitor, partial curve]",–
Cc1ccc2cc(C(c3nnnn3C3CCCC3)N3CCN(c4ccc(F)cc4)CC3)c(=O)[nH]c2c1 (stereo unspecified),–,inactive: -7.25%
O=c1c(Oc2ccccc2Br)c(C(F)(F)F)oc2c(CN3CCCC3)c(O)ccc12,active: 2.08 µM,–
COc1ccc([N+](=O)[O-])cc1NC(=O)c1ccc(C)o1,–,inactive: -11.4%
O=C(CNCc1cccs1)NC12CC3CC(CC(C3)C1)C2,active: 5.86 µM,–
COCCn1c(C)cc(C2=NNC(=Nc3ccc(OC)cc3)SC2)c1C,active: 3.7 µM,–
COc1cc(NC(=O)NCC2CCN(Cc3ccc(C)cc3)CC2)cc(OC)c1OC,active: 10.4 µM,–
CCCc1nn2c(=O)cc(CSCC(=O)Nc3ccccc3)nc2s1,"inconclusive: 1.04 µM [inhibitor, full curve]",–
O=C(Cc1c[nH]c2ccccc12)Nc1nc2ccccc2[nH]1,"inconclusive: 18.5 µM [inhibitor, single point]",–
O=C(Nc1ccccc1)Nc1ccncc1,"inconclusive: 3.29 µM [inhibitor, partial curve, poor fit]",–
O=C(c1ccco1)N1CCN(S(=O)(=O)c2c(Cl)cccc2Cl)CC1,–,inactive: -10.7%
CCc1ccc(C(=O)COC(=O)c2cccc(N3C(=O)c4c(C)nc5ccccc5c4C3=O)c2)cc1,"inconclusive: 0.0738 µM [inhibitor, full curve, poor fit]",–
CCOC(=O)CN1C(=O)C(O)(C2CCc3ccccc3C2=O)c2ccccc21 (stereo unspecified),–,inactive: 14%
Cc1ccc(C(=O)Nc2nnc(S(=O)(=O)N3CCN(c4ccc(F)cc4)CC3)s2)cc1,"inconclusive: 13.1 µM [inhibitor, partial curve]",–

# Some of these compounds in order of molar mass, falling.
Compound,Potency,"activity change, negative = inhibition"
COCCn1c(C)cc(C2=NNC(=Nc3ccc(OC)cc3)SC2)c1C,active: 3.7 µM,–
COc1ccc([N+](=O)[O-])cc1NC(=O)c1ccc(C)o1,–,inactive: -11.4%
COc1ccc(/C=C/C(=O)NC2CC3CCC2C3)cc1 (stereo unspecified),"inconclusive: 18.5 µM [inhibitor, single point]",–

# Next entries follow:

Compound,Potency,"activity change, negative = inhibition"
CCCSc1nc2cc(OC)c(OC)cc2c(=N)n1CCCN1CCOCC1,active: 4.65 µM,–
C/C=C/C(O)c1ccc2ccccc2c1 (stereo unspecified),"inconclusive: 18.5 µM [inhibitor, single point]",–
CCC1CCCCN1Cc1nc2c(c(=O)n(C)c(=O)n2C)n1CC(C)C (stereo unspecified),"inconclusive: 11.7 µM [inhibitor, single point]",–
O=C(NCCCN1CCOCC1)c1ccc2c(c1)N(Cc1ccccc1)CCS2,"inconclusive: 18.5 µM [inhibitor, single point]",–
O=C(CSc1ncn[nH]1)NCCOc1ccccc1,–,inactive: -1.67%
COc1ccc(CNC(=O)[C@H](C)N2C(=O)N3CCc4c([nH]c5ccccc45)[C@@]3(C)C2=O)cc1OC,active: 8.28 µM,–
CCn1cc(CN2CCCC(C(=O)c3ccc(-c4ccccc4)cc3)C2)cn1 (stereo unspecified),–,inactive: -17.7%
CN(C)S(=O)(=O)c1ccc(N2CCCC2)c(C(=O)Nc2ccc(N3CCOCC3)cc2)c1,"inconclusive: 16.5 µM [inhibitor, partial curve, poor fit]",–
CCc1c(C)nc2cc(-c3ccccc3)[nH]n2c1=O,"inconclusive: 18.5 µM [inhibitor, single point]",–
CCCC(C(=O)O)N1C(=O)/C(=C/c2cccn2C)SC1=S (stereo unspecified),–,inactive: -9.24%
Cc1ccc(OCC(=O)Nc2ccc3c(c2)OCCO3)cc1C,"inconclusive: 18.5 µM [inhibitor, single point]",–
CC(C)n1c(SCc2cc(=O)[nH]c3ccccc23)nc2c1c(=O)n(C)c(=O)n2C,"inconclusive: 11.7 µM [inhibitor, single point]",–
COc1ccc2[nH]c(=O)c(CNc3ccccc3)cc2c1,"inconclusive: 0.465 µM [inhibitor, full curve, poor fit]",–
CSc1nccc(N2CCN(c3ccc(F)cc3)CC2)n1,active: 11.7 µM,–
CCOC(=O)C1(CC2CCCCO2)CCN(C2CCSCC2)CC1 (stereo unspecified),–,inactive: 21.7%
CC(NC(=O)CN1CCN(Cc2ccc(Cl)cc2)C1=O)c1ccc2c(c1)OCCO2 (stereo unspecified),"inconclusive: 16.5 µM [inhibitor, partial curve, poor fit]",–
COc1ccc(C(=O)NCc2ccc3c(c2)cc(C)n3C)cc1OC,"inconclusive: 8.28 µM [inhibitor, partial curve, poor fit]",–
O=C(CCCO)N/N=C/c1ccccc1[N+](=O)[O-],–,inactive: 22.1%
Cc1cc(C)c(NC(=O)c2oc3ccccc3c2COc2ccccc2)c(C)c1,active: 5.22 µM,–
CCS(=O)(=O)C1=NN2C(=N)/C(=C\c3ccc(OC(=O)c4ccco4)c(Br)c3)C(=O)N=C2S1,"inconclusive: 11.7 µM [inhibitor, single point]",–
O=C(NCc1ccccc1CN1CCCC1)c1cccc(N2CCCC2=O)c1,active: 4.15 µM,–
CCC(=Nc1ccc(OC)cc1OC)c1c(O)n(C2CCCCC2)c(=O)[nH]c1=O,"inconclusive: 18.5 µM [inhibitor, single point]",–
CCOC(=O)C(NC=O)(NC(C)(C)C)C(=O)OCC,–,inactive: 15%
